According to patent US20110218170A1, “USE OF 2'-DEOXY-4'-THIOCYTIDINE AND ITS ANALOGUES AS DNA HYPOMETHYLATING ANTICANCER AGENTS” (Southern Research Institute, priority 2010, published 2011):
At least one structure is not confirmed: it was looked up by name or label, or the drawing left a doubt.

System: DNMT1
Assay: DNMT1 protein levels by western blot in drug-treated KG1a cells
Type: cell-based, human
Details: similar experiments, FIG. 1B or not shown
Protocol: Cells were incubated with drugs for the indicated times and analyzed by western blot. (*ns indicates a non-specific band used as a loading control).

## Nc1ncn([C@@H]2O[C@H](CO)[C@@H](O)[C@@H]2O)c(=O)n1 [ara-AC, 5-aza-arabinofuranosylcytosine, reference compound]
  effect on DNMT1 protein level: capable of depleting DNMT1
